Measured values reported in publication PMC2075816.
No constants are given. Whether binding was seen depends on the method and setting. For part of these data: In cells and extracts the contact can be indirect.

What was measured:
[1] = target: chromogranin A (CgA) in phaeochromocytoma heat-stable fraction (HSF) (human) (UniProt P10645); assay: ELISA; homosandwich ELISA: the same monoclonal antibody (B4E11 or A11) on the solid phase and biotinylated for detection, so a signal needs polyvalent CgA; M-ELISA conditions, room temperature, PBS with BSA, with 0.05% Tween 20 and also with Tween 20 left out of all buffers; heterosandwich controls (B4E11/A11-bio, A11/B4E11-bio) gave strong signals
[2] = target: chromogranin A (CgA) in phaeochromocytoma heat-stable fraction (HSF) (human) (UniProt P10645); assay: cross-linking + ELISA; phaeochromocytoma HSF treated with DSS (25 mM stock, 30 min at 25 C, stopped with ammonium acetate), then analysed by homo- and heterosandwich ELISAs with B4E11 and A11
[3] = target: chromogranin A (CgA) in phaeochromocytoma heat-stable fraction (HSF) (human) (UniProt P10645); assay: cross-linking; phaeochromocytoma HSF treated with DSS, then SDS-PAGE and Western blotting for CgA

binding [1]: no binding
binding [2]: no binding
binding [3]: no binding
B1: chromogranin A (CgA) in phaeochromocytoma heat-stable fraction (HSF) (protein, UniProt P10645 19-457)
chain: LPVNSPMNKGDTEVMKCIVEVISDTLSKPSPMPVSQECFETLRGDERILSILRHQNLLKELQDLALQGAKERAHQQKKHSGFEDELSEVLENQSSQAELKEAVEEPSSKDVMEKREDSKEAEKSGEATDGARPQALPEPMQESKAEGNNQAPGEEEEEEEEATNTHPPASLPSQKYPGPQAEGDSEGLSQGLVDREKGLSAEPGWQAKREEEEEEEEEAEAGEEAVPEEEGPTVVLNPHPSLGYKEIRKGESRSEALAVDGAGKPGAEEAQDPEGKGEQEHSQQKEEEEEMAVVPQGLFRGGKSGELEQEEERLSKEWEDSKRWSKMDQLAKELTAEKRLEGQEEEEDNRDSSMKLSFRARAYGFRGPGPQLRRGWRPSSREDSLEAGLPLQVRGYPEEKKEEEGSANRRPEDQELESLSAIEAELEKVAHQLQALRRG
